No constants are given. Whether binding was seen depends on the method and setting. Binding seen in cells or lysates may run through a third protein. Some binding calls cover weakened binding; strength is not graded here. Where a sequence is shown, tags or fusion partners need not be part of it. Values belong to the binder of their own block, whether it stands above or below them.
Target: ubiquitin (S. pombe (endogenous in S. pombe)) (UniProt P0CG72)
Experiment: co-IP

Protein sequences, listed by entry. Tags and fused reporters are not part of them. Residues count along the entry.
UniProt P0CG72, 1-76: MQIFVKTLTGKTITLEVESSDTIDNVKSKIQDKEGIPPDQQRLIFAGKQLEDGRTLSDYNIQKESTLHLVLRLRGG

binding: binds
B1: Cts1-flag-3HA (S. pombe CTP synthase tagged with flag and 3HA) (enzyme, UniProt O42644 1-600)
chain: MKYVLVSGGVISGIGKGVIASSTGLLLKTLGLKVTSIKIDPYMNIDAGTMSPLEHGEVFVLNDGGEVDLDLGNYERYLNVTLTHDNNITTGKVYSNVIQKERRGDYLGKTVQIVPHVTNEIQDWVERVARIPVDQSGEEPDVCIVELGGTVGDIESAAFVEAMRQFQFRVGHENFVSIHVSLVPVINGEQKTKPTQQAIRDLRSLGITPDLIACRCKQPLEKSVIDKISLFCHVGPEQVLAVHDVSSTYHVPQLLEDKLLEYLKIRFALDKISVSRELALAGENMWSSWKHLTQGYDHLFKKVTIVLVGKYTHLQDSYISVIKALEHSAMRCGRKLDLQWVEASHLEASTNTSDPLSYHKAWHLVCSANGILVPGGFGSRGVEGMIAAAKWARENNTPYLGICLGMQVAVIEFARSVCGIEGAFSEEFDKECENNVVVYMPEIDKDKLGGTMRLGLRPTFFQPNSEWSKLRKLHKMVDEVLERHRHRYEINPAFVSRLEQGGISFIGKDERGERMEIIEKRDHPYFVGVQYHPEYLSKPLKPSPPIFGLVAASAGLLDEFIQSGEEVEWSNFSHFNAESALADMNDSVEVTEEATVVTIS

binding: binds
B2: Cts1-YFP (S. pombe CTP synthase fused to YFP) (enzyme, UniProt O42644 1-600)
chain: B1 chain

— doi:10.1101/2021.12.06.470909
